These results are taken from PMC7954794, “Protein context shapes the specificity of SH3 domain-mediated interactions in vivo” (Nature Communications, 2021).

No constants are given. Whether binding was seen depends on the method and setting. Binding seen in cells or lysates may run through a third protein. A result given as binding can be weak or reduced; the word gives no strength. Sequences can lack the tags named with a protein.

B1: Hua2 fused to DHFR F[3] (protein, UniProt Q12134 1-243)
chain: MQQTKFGKMYLDHDSVVEYSEDEIVEADRITLGYKKRLSMIENQMRHLLEDFSLDVQQIEPILADLQKYYDAFLQLLQKRNKSLQCKRSTHQPVPSPMNSQTSTNAKVNLSGKLMKFQLNSVQKFDEENILRILQNKIEFEHYFQIDKGKKQKVLLLAVYQCLNGPTRLHKVLNIEGIIHNNSIRTILGKQVSSSKWTVFLYDVKLVLLAHRQDVPNLETSKMIVRYGDLFPCALYFKDHTAY
B2: App1 fused to DHFR F[3] (protein, UniProt P53933 1-587)
chain: MNSQGYDESSSSTAATSGPTSGDPRMGKKQRFMNLIRTTKDVYIPNLTSSISQKTMDGIRSTTNSFEGYNDLPMELPHNTTITYFPTYTTTNLVDPDGLSAPRKDFETTVRCAVSYPGNPTSRRNRWLLSLCKQYLRTGTAEADVAPVVPPHLEEDSGDLNDSQSSIESSLSSKSENRYSHMGIQEEDVLNERIQGFLSKKVPNTPVVVDLLPKDKLRGDTASFFGTTDSYGNLLIKAETDFLPSKINITLDTPIEGHADPISETFPANYVSPYGIGLISDIDDTIKHTGVTGDRRSMFRNVFIHDVQSWVIDGVPLWYKTLHDVADVDFFYVSNSPIQTFTLLKQYICANFPPGPIFLKQYSGNFFSTIMTSSANRKIQPIANILKDFPKKKFILVGDSGEHDLEAYTTTALQFPNQILAIYIRCCSNSMSDVPSHDEEVMNEVNNIIELQQRPMQMTKSTVRTRRRPPPPPIPSTQKPSLTEEQTESIRMSRRNKDENNAKRVAPPPLPNRQLPNLDANTYYVPSSQNDYGMYGAFMDKKADEWKRRVMDSIQKLSNQDTTLMFFSDPALSLEDSIRRIREKYSN
B3: Lsb3 fused to DHFR F[3] (protein, UniProt P43603 1-459)
chain: MGINNPIPRSLKSETKKAAKILASFVKPNQVFGADQVIPPDVLKRAKGLAIITILKAGFLFSGRAGSGVIVARLKDGTWSAPSAIAMAGAGAGGMVGIELTDFVFILNTQDAVKSFSEFGTITLGGNVSVSAGPLGRSAEAAASASAGGVAAVFAYSKSKGLFAGVSVEGSAIIERREANRKFYGDNCTAKMILSGRIRPPPAVDPLFRVLESRAFNYRPSNGGRGSFDDDEDDYYDDDDYYNDIPSSFSSTDASSTRPNTRSTRRRAQSGSRYTFDDDDDDDDYGTGYSRNSRLAPTNSGGSGGKLDDPSGASSYYASHRRSGTAQSRARSSRNRWADDEYDDYDDDYESGYRRGNGRDRTKDREVDDLSNRFSKSRISSASTPQTSQGRFTAPTSPSTSSPKAVALYSFAGEESGDLPFRKGDVITILKKSDSQNDWWTGRVNGREGIFPANYVELV

This test has as its target Abp1 SH3-deleted (SH3 replaced by the linker GGSSGGGG) fused to DHFR F[1,2]-FLAG (S. cerevisiae). Nature of the test: split reporter; DHFR protein-fragment complementation assay (DHFR-PCA) in diploid S. cerevisiae on solid medium with methotrexate; baits fused to DHFR F[1,2], preys to DHFR F[3]; colony size after the second PCA selection, four bait-prey tests; PCA score above a threshold is called a PPI.
For the molecule B1, the binding entry is on record as “no binding”.

With B2, the binding result is given as “no binding”.

For B3, the binding result is recorded as “binds”.
